Experimental data reported in PMC12507394.
Results are given in words; binding and its absence hold for the method and conditions named. Binding seen in cells or lysates may run through a third protein. Binding can be weak; no strength is given. Where a sequence is shown, tags or fusion partners need not be part of it.

Biological target: FLAG-tagged full-length cTAGE5 (FL, 1-804)
Assay: co-IP; HEK293 cells co-transfected with Flag-tagged cTAGE5 (FL or mutants) and GFP-tagged LBR (FL or truncations); after 24 h lysates precipitated with Flag agarose beads, blot with anti-Flag or anti-GFP

- binding: binds
B1: GFP-tagged LBR N (aa1-222) (domain or fragment, UniProt Q3U9G9 1-222)
chain: MPSRKFVEGEVVRGRWPGSSLYYEVEILSHDNKSQLYTVKYKDGTELELKESDIKPLKSFKQRKSGSISSSPSRRRGSRSRSRSRSRSRSPGRAPKGSRRSVSASHEGDVKEKKEKEMRREILQVKLTPLVLKPFGNSVSVYNGEPEHMEKNATPYKDKQERIILSTEDRYIVTQYSLRPRREEVKAKEIESEEQNLVTKGPAPLGTFQVTTPQRKDLEFGG
